Data taken from article PMC11996887.
Results are given in words; binding and its absence hold for the method and conditions named. For part of these data: Binding seen in cells or lysates may run through a third protein. Some binding calls cover weakened binding; strength is not graded here.

Legend:
[1] = target: T1, Peptidoglycan recognition protein 2 (PGLYRP2), endogenous in human liver tissue (human (endogenous in liver tissue)) (UniProt Q96PD5); experiment: proximity ligation; Duolink PLA on HBV+ and HBV- human liver tissue with mouse anti-HBc and rabbit anti-PGLYRP2 antibodies
T1 sequence: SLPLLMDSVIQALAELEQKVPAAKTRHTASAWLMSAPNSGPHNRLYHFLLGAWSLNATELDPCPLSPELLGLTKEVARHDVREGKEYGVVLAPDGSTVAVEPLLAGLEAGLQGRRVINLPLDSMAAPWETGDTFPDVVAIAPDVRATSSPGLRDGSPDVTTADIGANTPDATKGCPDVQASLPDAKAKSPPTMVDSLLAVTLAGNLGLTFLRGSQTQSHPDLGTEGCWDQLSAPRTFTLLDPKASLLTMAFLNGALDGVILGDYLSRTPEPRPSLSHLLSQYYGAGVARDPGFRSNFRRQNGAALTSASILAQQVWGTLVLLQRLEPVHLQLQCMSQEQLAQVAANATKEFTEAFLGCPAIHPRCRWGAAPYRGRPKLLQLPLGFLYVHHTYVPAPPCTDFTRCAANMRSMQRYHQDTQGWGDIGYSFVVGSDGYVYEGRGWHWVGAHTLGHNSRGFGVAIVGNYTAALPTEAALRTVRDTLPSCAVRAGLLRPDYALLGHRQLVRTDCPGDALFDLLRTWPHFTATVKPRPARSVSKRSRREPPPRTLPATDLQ

[2] = target: T1, Peptidoglycan recognition protein 2 (PGLYRP2), endogenous in human liver tissue (human (endogenous in liver tissue)); experiment: co-IP; HBV+ or HBV- human liver tissue lysates, immunoprecipitated with anti-PGLYRP2 and agarose beads at 4 C overnight, blotted
[3] = target: T2, PGLYRP2, full-length expression construct (human) (UniProt Q96PD5); experiment: pull-down; FLAG pull-down of HBV proteins with PGLYRP2 (full-length and truncated constructs); details only in Supplemental Figure 4B-D
T2 sequence: T1 sequence

[4] = target: T2, PGLYRP2, full-length expression construct (human); experiment: co-IP; PGLYRP2 construct cotransfected with Con vector, HBc WT, HBc-C61G or HBc-Y132A into HEK293 cells; lysates after 48 hours, co-IP with anti-FLAG antibody, blotted
[5] = target: T2, PGLYRP2, full-length expression construct (human); experiment: SEC; size-exclusion chromatography of the FLAG-eluted extracellular PGLYRP2/HBV capsid complex (formed in coexpressing HEK293 cells) against HBV capsid alone; fractions of the peaks analysed
[6] = target: T2, PGLYRP2, full-length expression construct (human); experiment: pull-down; culture supernatants of HEK293 cells coexpressing HBc and PGLYRP2; FLAG pull-down and ultracentrifugation, elution with 3xFLAG peptides, Western blot

Measured: binding

HBV core protein (HBc) / HBV capsid in HBV-infected human liver tissue (from UniProt P03146 1-183)
binds: [1] | [2]

HBV core protein, wild type (WT HBc) (from UniProt P03146 1-183)
binds: [3] | [4] | [5] | [6]
